According to article PMC12037730 (Nature Communications, 2025):
No constants are given. Whether binding was seen depends on the method and setting. In cells and extracts the contact can be indirect. A result given as binding can be weak or reduced; the word gives no strength.

Chains of the proteins cited; added tags and fusions are not shown. Lines headed by an entry give the natural chain unless they say otherwise; changes in a name come on top.
UniProt P11908: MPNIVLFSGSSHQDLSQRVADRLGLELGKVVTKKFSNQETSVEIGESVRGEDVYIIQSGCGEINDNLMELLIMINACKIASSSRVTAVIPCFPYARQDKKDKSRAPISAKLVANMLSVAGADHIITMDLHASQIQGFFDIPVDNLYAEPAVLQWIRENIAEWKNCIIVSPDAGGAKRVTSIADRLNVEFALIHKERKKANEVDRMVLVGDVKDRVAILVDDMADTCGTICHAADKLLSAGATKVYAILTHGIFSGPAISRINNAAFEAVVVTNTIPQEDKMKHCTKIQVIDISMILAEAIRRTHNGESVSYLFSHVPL
UniProt P31153: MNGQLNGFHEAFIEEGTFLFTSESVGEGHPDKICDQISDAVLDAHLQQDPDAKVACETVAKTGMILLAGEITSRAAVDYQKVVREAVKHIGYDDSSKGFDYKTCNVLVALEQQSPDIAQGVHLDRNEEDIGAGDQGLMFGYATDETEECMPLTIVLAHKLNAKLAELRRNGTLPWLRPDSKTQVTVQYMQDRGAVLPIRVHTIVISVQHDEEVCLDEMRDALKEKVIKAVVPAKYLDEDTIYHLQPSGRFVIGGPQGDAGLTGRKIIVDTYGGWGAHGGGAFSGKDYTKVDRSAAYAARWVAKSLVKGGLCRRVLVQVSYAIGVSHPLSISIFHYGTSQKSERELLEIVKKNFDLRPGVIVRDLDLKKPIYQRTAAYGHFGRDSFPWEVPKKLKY

Target: endogenous PRPS2 (human (endogenous in PC9 and H1792)) (UniProt P11908)
Assay: co-IP; endogenous proteins in PC9 and H1792 whole-cell extracts; anti-PRPS2 or normal rabbit IgG overnight, Protein G Plus/Protein A-Agarose; Western blot

For “endogenous MAT2A (methionine adenosyltransferase 2A) (from UniProt P31153 1-395) (enzyme)”, the binding was “binds”.
